The values that follow come from the supplement of paper PMC12819154, “High-throughput peptide-centric local stability assay extends protein–ligand identification to membrane proteins, tissues and bacteria” (Nature Structural & Molecular Biology, 2025).

Amino acid sequences for entries named in this document (tags omitted). A change or cut given only in a name is not applied to a line headed by its entry.
UniProt Q9Z1J3: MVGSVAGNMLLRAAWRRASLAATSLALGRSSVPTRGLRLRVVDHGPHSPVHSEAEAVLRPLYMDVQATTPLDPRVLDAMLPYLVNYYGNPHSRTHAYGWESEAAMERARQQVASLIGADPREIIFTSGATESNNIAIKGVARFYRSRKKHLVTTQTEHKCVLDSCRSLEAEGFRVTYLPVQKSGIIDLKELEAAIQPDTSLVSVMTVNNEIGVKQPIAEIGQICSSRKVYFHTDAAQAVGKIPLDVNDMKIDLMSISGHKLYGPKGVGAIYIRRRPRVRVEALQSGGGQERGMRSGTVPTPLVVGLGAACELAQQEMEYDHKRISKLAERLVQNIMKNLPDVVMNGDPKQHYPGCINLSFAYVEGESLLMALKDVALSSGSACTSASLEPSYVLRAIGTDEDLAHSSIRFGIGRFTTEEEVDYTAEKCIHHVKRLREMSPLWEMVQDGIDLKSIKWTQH
UniProt Q9Z1S8, whole entry: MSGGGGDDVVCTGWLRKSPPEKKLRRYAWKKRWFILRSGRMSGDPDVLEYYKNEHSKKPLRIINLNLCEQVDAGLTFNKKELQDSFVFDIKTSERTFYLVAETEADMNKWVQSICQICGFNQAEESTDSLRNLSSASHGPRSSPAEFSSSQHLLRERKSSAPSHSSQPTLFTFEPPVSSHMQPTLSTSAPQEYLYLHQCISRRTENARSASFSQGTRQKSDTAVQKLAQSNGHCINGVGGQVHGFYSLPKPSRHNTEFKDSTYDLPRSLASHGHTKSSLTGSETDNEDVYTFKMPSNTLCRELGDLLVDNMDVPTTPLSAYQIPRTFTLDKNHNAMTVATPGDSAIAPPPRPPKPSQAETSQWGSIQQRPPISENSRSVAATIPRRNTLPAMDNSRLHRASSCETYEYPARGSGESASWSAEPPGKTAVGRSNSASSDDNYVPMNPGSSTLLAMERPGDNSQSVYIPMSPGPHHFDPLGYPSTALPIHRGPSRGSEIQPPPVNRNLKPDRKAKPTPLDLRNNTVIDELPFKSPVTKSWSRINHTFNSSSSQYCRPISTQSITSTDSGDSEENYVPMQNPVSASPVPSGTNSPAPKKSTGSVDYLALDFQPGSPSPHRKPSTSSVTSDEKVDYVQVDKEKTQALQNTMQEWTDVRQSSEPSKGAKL
UniProt Q9Z2X8, whole entry: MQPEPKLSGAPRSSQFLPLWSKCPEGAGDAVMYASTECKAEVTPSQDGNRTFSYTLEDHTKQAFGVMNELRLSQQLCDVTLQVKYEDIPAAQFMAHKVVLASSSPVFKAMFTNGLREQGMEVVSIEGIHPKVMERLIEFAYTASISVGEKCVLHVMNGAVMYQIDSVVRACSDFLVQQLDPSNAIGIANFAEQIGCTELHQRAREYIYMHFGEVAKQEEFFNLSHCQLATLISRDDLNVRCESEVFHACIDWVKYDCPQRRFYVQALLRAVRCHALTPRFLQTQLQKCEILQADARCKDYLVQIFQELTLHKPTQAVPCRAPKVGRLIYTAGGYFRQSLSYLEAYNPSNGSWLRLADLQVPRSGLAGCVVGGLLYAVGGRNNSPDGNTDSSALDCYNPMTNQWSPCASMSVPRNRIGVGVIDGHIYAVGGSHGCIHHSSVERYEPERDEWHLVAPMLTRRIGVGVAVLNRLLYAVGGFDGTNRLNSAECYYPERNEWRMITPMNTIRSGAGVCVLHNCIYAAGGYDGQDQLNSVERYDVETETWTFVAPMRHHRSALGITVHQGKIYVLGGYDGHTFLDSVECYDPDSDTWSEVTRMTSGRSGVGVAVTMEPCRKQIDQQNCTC
UniProt Q9Z211: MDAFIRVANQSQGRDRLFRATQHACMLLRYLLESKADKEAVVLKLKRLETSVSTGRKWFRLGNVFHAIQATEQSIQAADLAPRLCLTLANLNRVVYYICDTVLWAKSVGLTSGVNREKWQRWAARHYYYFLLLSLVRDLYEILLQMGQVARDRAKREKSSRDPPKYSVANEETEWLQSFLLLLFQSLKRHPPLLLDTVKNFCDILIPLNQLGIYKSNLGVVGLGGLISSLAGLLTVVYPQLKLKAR
UniProt Q9Z0S1: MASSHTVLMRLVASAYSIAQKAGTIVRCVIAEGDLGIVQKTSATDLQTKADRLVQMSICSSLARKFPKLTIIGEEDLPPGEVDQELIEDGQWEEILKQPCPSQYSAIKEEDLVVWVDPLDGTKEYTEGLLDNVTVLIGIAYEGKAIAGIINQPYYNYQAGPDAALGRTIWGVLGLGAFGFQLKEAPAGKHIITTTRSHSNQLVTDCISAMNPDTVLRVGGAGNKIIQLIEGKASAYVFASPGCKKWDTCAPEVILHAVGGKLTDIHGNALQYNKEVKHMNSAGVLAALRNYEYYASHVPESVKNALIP
UniProt Q9Z2Y3: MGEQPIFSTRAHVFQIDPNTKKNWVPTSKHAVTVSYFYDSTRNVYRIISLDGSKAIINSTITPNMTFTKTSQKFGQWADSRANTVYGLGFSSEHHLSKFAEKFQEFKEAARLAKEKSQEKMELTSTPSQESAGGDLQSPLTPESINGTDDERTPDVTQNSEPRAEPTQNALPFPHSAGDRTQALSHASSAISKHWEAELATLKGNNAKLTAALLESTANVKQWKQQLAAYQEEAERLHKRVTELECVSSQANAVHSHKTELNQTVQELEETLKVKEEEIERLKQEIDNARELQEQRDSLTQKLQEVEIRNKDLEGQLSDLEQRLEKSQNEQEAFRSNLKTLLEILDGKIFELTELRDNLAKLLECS
UniProt Q9WVG9: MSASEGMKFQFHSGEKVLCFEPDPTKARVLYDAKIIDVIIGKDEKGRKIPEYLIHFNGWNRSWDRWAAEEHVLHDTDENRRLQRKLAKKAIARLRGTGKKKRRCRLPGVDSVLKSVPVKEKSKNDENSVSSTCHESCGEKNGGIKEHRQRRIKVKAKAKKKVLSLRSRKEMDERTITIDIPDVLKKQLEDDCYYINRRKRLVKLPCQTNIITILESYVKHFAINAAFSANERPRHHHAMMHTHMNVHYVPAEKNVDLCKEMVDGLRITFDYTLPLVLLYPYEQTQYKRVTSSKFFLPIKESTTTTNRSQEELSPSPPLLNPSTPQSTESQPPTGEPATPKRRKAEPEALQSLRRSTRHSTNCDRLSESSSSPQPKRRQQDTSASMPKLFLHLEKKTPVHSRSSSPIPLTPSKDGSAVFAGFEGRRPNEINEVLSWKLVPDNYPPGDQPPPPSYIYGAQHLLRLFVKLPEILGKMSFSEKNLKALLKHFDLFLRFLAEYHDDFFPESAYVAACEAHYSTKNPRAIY
UniProt Q9Z2H5, whole entry: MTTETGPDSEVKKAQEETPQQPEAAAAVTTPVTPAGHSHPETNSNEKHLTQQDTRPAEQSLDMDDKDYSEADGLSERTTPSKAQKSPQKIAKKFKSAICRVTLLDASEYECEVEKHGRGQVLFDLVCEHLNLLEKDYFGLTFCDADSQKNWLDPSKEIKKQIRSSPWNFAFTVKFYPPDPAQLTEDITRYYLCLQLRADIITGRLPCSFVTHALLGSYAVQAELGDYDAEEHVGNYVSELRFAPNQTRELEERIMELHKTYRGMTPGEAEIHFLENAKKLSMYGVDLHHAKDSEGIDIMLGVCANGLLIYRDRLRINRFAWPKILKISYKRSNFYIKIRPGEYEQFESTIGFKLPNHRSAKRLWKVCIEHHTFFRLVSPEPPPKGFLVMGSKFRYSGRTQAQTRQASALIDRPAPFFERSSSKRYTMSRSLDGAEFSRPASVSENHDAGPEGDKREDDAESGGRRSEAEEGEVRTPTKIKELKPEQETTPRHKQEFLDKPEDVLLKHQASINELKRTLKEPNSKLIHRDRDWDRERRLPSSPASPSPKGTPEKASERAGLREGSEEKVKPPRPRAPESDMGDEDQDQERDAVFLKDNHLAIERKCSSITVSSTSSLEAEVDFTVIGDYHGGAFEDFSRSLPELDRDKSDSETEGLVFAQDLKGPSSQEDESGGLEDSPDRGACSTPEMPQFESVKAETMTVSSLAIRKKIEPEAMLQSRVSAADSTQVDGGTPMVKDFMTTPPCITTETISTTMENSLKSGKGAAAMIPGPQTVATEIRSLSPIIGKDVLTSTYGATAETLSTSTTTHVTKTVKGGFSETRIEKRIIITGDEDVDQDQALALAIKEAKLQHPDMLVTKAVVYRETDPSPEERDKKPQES
UniProt Q9Z0F4: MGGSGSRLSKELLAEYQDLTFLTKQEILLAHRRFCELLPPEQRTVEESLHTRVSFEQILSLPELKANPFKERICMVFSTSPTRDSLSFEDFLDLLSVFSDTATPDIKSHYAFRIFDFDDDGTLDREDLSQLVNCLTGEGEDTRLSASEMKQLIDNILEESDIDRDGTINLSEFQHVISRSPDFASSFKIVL
UniProt Q9Z0N1, whole entry: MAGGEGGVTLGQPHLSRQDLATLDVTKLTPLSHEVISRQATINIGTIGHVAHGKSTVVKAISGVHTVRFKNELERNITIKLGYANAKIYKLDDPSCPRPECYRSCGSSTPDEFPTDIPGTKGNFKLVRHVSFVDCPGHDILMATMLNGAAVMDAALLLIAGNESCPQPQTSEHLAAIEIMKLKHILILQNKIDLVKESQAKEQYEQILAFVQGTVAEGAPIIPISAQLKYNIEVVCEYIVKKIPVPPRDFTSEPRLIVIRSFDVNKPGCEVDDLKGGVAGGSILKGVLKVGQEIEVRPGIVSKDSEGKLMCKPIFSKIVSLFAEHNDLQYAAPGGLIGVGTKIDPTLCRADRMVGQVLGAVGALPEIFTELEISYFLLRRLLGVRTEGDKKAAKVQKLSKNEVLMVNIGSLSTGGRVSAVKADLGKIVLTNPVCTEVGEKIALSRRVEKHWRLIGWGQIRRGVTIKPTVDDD
UniProt Q9Z2V5: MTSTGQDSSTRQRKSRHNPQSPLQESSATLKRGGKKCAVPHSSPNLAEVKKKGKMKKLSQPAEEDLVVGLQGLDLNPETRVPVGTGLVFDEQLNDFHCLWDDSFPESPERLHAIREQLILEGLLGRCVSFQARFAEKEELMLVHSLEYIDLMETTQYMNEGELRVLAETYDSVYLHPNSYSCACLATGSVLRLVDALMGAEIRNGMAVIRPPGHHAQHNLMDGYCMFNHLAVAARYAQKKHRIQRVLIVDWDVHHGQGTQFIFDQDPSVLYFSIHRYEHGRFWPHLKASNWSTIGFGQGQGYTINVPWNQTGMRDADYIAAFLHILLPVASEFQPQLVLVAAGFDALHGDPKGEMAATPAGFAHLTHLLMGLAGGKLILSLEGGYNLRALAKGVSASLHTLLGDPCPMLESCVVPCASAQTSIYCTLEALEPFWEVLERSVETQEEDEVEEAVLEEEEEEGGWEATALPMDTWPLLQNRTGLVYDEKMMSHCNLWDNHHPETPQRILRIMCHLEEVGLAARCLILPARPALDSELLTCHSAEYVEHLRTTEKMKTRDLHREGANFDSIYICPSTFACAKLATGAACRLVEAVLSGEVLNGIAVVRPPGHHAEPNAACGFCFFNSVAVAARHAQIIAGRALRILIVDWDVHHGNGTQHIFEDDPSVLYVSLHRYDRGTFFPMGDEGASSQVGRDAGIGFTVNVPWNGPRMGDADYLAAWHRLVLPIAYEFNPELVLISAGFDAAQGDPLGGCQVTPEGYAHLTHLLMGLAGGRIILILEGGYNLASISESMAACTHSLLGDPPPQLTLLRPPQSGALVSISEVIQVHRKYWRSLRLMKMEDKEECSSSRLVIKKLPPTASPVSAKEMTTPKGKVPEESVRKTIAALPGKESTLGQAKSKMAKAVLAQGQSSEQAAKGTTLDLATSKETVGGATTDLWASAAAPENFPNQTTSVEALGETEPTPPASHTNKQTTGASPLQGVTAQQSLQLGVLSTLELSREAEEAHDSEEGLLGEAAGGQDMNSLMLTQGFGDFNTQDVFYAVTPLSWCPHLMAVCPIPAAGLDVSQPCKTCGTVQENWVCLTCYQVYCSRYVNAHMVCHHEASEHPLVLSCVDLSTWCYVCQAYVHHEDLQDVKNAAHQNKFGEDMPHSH
UniProt Q9Z188, whole entry: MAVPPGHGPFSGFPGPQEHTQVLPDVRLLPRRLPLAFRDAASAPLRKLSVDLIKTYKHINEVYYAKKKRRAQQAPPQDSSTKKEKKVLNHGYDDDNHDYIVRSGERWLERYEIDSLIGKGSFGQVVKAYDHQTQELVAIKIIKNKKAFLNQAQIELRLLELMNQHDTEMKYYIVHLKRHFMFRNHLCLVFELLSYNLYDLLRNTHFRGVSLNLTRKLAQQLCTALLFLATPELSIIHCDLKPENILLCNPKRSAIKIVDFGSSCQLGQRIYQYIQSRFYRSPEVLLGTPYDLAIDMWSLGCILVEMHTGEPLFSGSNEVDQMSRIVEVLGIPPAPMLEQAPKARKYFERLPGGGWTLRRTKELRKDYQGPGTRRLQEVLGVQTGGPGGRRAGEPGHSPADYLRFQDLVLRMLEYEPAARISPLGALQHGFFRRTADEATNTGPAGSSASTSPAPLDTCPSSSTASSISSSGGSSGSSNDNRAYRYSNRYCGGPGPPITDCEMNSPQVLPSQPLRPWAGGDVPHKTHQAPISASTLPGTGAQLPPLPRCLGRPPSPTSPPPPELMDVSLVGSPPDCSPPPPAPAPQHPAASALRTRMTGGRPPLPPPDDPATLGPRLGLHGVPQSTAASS

The list shows a part of the results. Small differences around the control level are noise.

Compound in this assay: CN[C@@H]1C[C@H]2O[C@@](C)([C@@H]1OC)n1c3ccccc3c3c4c(c5c6ccccc6n2c5c31)C(=O)NC4 [staurosporine]
Description: log2 fold change of tryptic peptide abundance, ligand vs vehicle (limited proteolysis) (log2 ratio); higher = more trypsin-susceptible (destabilized). Particulars: ligand concentration: 20 uM; sample: mouse liver crude lysate; replicate design: treated separately.
For the target “UniProt Q9Z1J3 (peptide sequence: KVYFHTDAAQAVGK, peptide start residue: 228)”, the log2 fold change is -0.205.

On to “UniProt Q9Z1P7 (peptide sequence: AEDPDGLAAR, peptide start residue: 268)”, for which the log2 fold change is -0.206.

As for “UniProt Q9Z1S8 (peptide sequence: AKPTPLDLR, peptide start residue: 512)”, the log2 fold change is -0.115.

“UniProt Q9Z2W0 (peptide sequence: VLDLGSPQLAMHSIR, peptide start residue: 427)”: the log2 fold change worked out at 0.439.

Turning to “UniProt Q9Z2X8 (peptide sequence: TFSYTLEDHTK, peptide start residue: 51)”, the log2 fold change is -0.534.

For the target “UniProt Q9Z211 (peptide sequence: ADKEAVVLK, peptide start residue: 36)”, the log2 fold change is -0.327.

Take “UniProt Q9Z0E6 (peptide sequence: TKAEAAEAANR, peptide start residue: 492)”: the log2 fold change was -0.806.

Regarding “UniProt Q9Z1B5 (peptide sequence: SFTTTIHK, peptide start residue: 185)”, the log2 fold change worked out at 0.155.

As to “UniProt Q9Z0S1 (peptide sequence: LTDIHGNALQYNK, peptide start residue: 262)”, the log2 fold change is -0.432.

As to “UniProt Q9WVL2 (peptide sequence: SFVVETQPCMPQTLHRPLILK, peptide start residue: 315)”, the log2 fold change is 0.303.

For “UniProt Q9Z2L7 (peptide sequence: ENVEAAQSYRR, peptide start residue: 18)”, the log2 fold change was 0.0995.

As to “UniProt Q9Z0X4 (peptide sequence: EQLMGHSEWDHK, peptide start residue: 317)”, the log2 fold change was -0.0834.

Consider “UniProt Q9Z2Y3 (peptide sequence: VTELECVSSQANAVHSHK, peptide start residue: 241)”, for which the log2 fold change came to 0.806.

“UniProt Q9WVG9 (peptide sequence: QQDTSASMPK, peptide start residue: 378)”: the log2 fold change came to 0.366.

As to “UniProt Q9Z2H5 (peptide sequence: DNHLAIER, peptide start residue: 596)”, the log2 fold change was -0.716.

“UniProt Q9Z129 (peptide sequence: LIYVTPEK, peptide start residue: 186)”: the log2 fold change was -0.165.

For the target “UniProt Q9WVD4 (peptide sequence: QCLVTHNGR, peptide start residue: 780)”, the log2 fold change stood at 0.185.

Take “UniProt Q9Z1G3 (peptide sequence: TCQQTWEK, peptide start residue: 14)”: the log2 fold change was -0.785.

As for “UniProt Q9WVR4 (peptide sequence: GGSGGGSDKAGYTTDESSSSSLHTTR, peptide start residue: 400)”, the log2 fold change worked out at 0.468.

Turning to “UniProt Q9Z321 (peptide sequence: VACNTCNVVAHCFENAHR, peptide start residue: 746)”, the log2 fold change was -0.772.

Regarding “UniProt Q9WVA4 (peptide sequence: NFSDNQLQEGK, peptide start residue: 161)”, the log2 fold change stood at 0.0887.

Regarding “UniProt Q9WVL3 (peptide sequence: NTASHTTATAR, peptide start residue: 957)”, the log2 fold change worked out at 0.434.

Take “UniProt Q9Z1E4 (peptide sequence: VGGIYTVLQTK, peptide start residue: 40)”: the log2 fold change worked out at 0.208.

Take “UniProt Q9Z0F4 (peptide sequence: TVEESLHTR, peptide start residue: 44)”: the log2 fold change was -0.376.

“UniProt Q9WVQ0 (peptide sequence: KLNMELK, peptide start residue: 805)”: the log2 fold change worked out at 0.159.

In the case of “UniProt Q9Z0N1 (peptide sequence: FKNELER, peptide start residue: 69)”, the log2 fold change amounted to 0.189.

With “UniProt Q9Z2E1 (peptide sequence: GKPDLNTTLPIR, peptide start residue: 238)”, the log2 fold change came to 0.238.

In the case of “UniProt Q9Z2V5 (peptide sequence: TIAALPGKESTLGQAK, peptide start residue: 881)”, the log2 fold change was -0.259.

“UniProt Q9Z2C5 (peptide sequence: YMELLALRDDYIKR, peptide start residue: 557)”: the log2 fold change was found to be 0.317.

Consider “UniProt Q9Z188 (peptide sequence: ISPLGALQHGFFR, peptide start residue: 420)”, for which the log2 fold change was -0.607.

With “UniProt Q9Z329 (peptide sequence: HLATGNYLAAELNPDYR, peptide start residue: 307)”, the log2 fold change came to 0.292.
